The target of assay [1] is OTX2 homeoprotein (mouse (endogenous in adult mouse brain tissue)) (UniProt P80206). Kind of assay: affinity purification with mass spectrometry; anti-OTX2 (ab21990) coupled to magnetic beads, lysate of pooled LV and 4V choroid plexus from four 3-month-old mice; 100 mM Tris pH 7.5, 1 mM EDTA, 100 mM NaCl, 1% NP40, 1 mM MgCl2, benzonase; 4 °C overnight; IgG co-IP as control; nano-LC-MS/MS; N = 3.

Protein sequences, listed by entry. Tags and fused reporters are not part of them.
UniProt P80206: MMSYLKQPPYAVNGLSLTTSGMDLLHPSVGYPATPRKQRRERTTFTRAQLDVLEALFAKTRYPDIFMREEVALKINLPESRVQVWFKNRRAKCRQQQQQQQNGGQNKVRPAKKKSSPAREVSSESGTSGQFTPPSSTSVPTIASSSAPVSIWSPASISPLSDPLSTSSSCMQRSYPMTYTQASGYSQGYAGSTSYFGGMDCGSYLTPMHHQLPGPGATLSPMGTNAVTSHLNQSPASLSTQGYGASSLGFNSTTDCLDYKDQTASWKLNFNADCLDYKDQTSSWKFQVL
UniProt Q9Z0V1: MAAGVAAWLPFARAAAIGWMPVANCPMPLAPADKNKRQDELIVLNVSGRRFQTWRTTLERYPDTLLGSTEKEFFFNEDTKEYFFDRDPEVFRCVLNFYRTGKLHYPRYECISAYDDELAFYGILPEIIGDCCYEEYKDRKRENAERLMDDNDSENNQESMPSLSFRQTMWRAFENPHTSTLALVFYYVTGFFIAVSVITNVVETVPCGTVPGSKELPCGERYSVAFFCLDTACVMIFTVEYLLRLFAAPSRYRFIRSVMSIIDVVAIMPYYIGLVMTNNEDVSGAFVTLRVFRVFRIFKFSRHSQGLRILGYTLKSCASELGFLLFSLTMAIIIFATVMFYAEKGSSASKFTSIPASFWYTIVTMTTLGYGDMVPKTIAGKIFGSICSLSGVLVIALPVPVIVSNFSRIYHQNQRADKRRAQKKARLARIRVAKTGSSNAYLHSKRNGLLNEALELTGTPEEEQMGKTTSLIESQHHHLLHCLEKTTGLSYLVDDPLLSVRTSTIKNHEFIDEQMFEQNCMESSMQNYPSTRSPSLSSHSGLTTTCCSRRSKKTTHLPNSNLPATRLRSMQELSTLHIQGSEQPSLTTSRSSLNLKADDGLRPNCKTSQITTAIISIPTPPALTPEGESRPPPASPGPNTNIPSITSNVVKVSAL
UniProt Q9Z1T6: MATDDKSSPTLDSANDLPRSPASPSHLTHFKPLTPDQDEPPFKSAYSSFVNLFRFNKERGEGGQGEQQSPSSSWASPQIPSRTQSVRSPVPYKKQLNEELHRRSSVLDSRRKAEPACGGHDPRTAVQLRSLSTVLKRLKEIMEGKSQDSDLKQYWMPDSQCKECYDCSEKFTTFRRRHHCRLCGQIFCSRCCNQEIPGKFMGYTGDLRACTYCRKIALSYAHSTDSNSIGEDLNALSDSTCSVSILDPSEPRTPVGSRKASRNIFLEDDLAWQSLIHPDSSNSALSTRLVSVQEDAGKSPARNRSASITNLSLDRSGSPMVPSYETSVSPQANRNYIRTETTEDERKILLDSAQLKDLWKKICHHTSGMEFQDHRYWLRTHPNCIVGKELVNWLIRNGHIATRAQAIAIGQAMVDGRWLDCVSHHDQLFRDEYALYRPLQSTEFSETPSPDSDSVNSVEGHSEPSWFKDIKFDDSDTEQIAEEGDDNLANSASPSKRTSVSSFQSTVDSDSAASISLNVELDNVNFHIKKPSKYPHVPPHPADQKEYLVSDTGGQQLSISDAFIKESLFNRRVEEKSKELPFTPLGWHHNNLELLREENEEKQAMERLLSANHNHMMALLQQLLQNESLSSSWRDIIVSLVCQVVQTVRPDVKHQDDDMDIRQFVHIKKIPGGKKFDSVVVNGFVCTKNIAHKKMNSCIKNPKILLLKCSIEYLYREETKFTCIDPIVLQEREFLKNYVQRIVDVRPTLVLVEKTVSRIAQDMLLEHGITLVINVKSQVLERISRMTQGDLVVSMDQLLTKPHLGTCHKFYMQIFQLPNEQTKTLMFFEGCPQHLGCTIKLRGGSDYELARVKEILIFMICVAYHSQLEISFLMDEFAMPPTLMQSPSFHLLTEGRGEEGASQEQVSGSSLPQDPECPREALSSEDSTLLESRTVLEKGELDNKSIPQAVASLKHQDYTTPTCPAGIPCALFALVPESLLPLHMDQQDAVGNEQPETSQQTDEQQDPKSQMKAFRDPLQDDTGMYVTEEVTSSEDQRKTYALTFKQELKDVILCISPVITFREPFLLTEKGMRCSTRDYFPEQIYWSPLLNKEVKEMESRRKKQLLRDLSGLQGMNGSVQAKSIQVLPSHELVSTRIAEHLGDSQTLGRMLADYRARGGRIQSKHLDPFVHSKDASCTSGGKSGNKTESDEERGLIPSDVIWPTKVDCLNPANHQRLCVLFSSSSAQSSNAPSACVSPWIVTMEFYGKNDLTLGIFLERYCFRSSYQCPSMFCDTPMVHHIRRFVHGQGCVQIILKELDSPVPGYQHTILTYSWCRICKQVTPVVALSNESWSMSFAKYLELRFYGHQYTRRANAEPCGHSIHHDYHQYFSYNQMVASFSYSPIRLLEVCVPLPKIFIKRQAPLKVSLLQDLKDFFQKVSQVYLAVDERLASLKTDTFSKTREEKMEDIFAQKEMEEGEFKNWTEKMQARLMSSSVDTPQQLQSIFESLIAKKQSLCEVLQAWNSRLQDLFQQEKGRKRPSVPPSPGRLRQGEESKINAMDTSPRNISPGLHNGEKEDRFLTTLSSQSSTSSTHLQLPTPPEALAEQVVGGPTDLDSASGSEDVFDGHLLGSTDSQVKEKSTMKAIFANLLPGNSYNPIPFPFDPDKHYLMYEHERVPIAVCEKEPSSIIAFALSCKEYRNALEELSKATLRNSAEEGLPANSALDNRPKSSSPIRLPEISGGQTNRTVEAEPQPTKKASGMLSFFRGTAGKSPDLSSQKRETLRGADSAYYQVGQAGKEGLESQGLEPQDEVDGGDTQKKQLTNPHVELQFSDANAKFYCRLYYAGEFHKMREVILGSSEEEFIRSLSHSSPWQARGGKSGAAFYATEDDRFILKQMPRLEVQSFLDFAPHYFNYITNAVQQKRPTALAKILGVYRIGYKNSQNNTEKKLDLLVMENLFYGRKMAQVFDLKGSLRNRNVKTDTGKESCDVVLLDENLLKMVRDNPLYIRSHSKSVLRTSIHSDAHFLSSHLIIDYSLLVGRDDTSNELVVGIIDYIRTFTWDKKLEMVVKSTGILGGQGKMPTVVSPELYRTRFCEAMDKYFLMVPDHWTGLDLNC
UniProt B2RY56: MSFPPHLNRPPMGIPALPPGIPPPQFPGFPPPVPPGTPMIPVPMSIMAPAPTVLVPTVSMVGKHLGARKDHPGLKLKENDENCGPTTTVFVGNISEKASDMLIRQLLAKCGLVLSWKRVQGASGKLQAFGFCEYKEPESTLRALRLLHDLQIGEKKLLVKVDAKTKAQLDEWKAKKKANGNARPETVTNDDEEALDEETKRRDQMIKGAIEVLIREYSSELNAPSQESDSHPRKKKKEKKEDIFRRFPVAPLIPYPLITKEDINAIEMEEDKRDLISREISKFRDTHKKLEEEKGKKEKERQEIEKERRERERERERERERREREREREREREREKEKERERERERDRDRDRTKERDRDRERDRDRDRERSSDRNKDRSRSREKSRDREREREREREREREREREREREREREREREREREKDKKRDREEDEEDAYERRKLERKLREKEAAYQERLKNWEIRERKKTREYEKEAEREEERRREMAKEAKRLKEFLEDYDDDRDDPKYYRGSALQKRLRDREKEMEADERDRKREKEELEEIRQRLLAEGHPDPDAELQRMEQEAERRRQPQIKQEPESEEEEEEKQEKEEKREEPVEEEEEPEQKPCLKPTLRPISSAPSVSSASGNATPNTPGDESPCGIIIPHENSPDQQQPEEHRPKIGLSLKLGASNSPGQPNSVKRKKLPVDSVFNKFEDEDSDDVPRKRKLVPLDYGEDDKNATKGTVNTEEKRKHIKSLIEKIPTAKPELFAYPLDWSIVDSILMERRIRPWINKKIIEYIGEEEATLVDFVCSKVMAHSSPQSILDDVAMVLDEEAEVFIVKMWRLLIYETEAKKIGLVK

The target is the same in assay [2]. The assay can be described thus: affinity purification with mass spectrometry; anti-OTX2 (ab21990) coupled to magnetic beads, lysates of SVZ, RMS and visual cortex pooled from ten 3-month-old wildtype mice; 20 mM Tris pH 8, 120 mM NaCl, 1% NP40, 1 mM MgCl2, 5% glycerol, benzonase; IgG co-IP as control; nano-LC-MS/MS; N = 1; hits common to the three structures.

Results are given in words; binding and its absence hold for the method and conditions named. Binding seen in cells or lysates may run through a third protein. These calls come from enrichment with a bait or labelling near it, and not all partners need be listed.

With KCND3 (from UniProt Q9Z0V1 1-655), the binding result in assay [1] and in assay [2] was “binds” in each case.

As to PIKFYVE (from UniProt Q9Z1T6 1-2097), the binding entry in assay [1] and in assay [2] was “binds” throughout.

In the case of RBM25 (from UniProt B2RY56 1-838), the binding entry in assay [2] is recorded as “binds”.

B1: FIG4 (protein, UniProt Q91WF7 1-907)
chain: MPTAAAPIISSVQKLVLYETRARYFLVGSNHAETKYRVLKIDRTEPKDLVVIDDRHVYTQQEVRELLGRLDLGNRTKMSQKGSSGLFRAVSAFGVVGFVRFLEGYYIVLITKRRKMADIGGHAIYKIEDTSMIYIPNDSVRISHPDEARYLRIFQNVDLSSNFYFSYSYDLSHSLQYNLTVLRMPLEMLKSETSKACQESFDIFEDEGLITQGGSGVFGISSEPYMKYVWNGELLDIIKNTVHRDWLLYIIHGFCGQSKLLIYGRPVYVTLIARRSSRFAGTRFLKRGANCEGDVANEVETEQILCDASVMSFTAGSYSSYVQVRGSVPLFWSQDISTMMPKPPITLDQADPFAHVAALHFDQMLQRFGSPIIILNLVKEREKRKHERILSEELVAAVTYLNQFLPPEHTIVYIPWDMAKYTKSKLCNVLDRLNVIAESVVKKTGFFVNRPDSYCSILRPDEKWNELGGHVIPTGRLQTGILRTNCVDCLDRTNTAQFMVGKCALAYQLYSLGLIDKPNLQFDTDAVRLFEELYEDHGDTLSLQYGGSQLVHRVKTYRKIAPWTQHSKDIMQTLSRYYSNAFSDADRQDSINLFLGVFHPTEGKPHLWELPTDFYLHHKNTMSLLPPRRSYTYWWTPEVVKHLPLPYDEVICAANLKKLMVKKFHRWEEEIDIHNEFFRPYELSSFDDTFCLAMTSSARDFMPKTVGIDPSPFTVRKPDETGKSVLGNKNTREEAVLQRKTAASAPPPPSEEAVSSSSEDDSGTDREDEGSISQRSTPVKMTDTGDSAKATENVVQPMKEVYGVSLSSSLSEEDHSIYARFVQLGQSQHKQDRGNQQLCSRCSDGVIKLTPISAFSQDNIYEVQPPRVDRKSTEIFQAHIQASQGIMQPLGKEDTAMYREYIRNRYL
As to B1, the binding result in assay [1] and in assay [2] was “binds” throughout.

B2: ACIN1 (protein, UniProt Q9JIX8 1-1338)
chain: MWGRKRPNSSGETRGILSGNRGVDYGSGRGQSGPFEGRWRKLPKMPEAVGTDPSTSRKMAELEEVTLDGKPLQALRVTDLKAALEQRGLAKSGQKSALVKRLKGALMLENLQKHSTPHAAFQPNSQIGEEMSQNSFIKQYLEKQQELLRQRLEREAREAAELEEASAESEDEMTHPEGVASLLPPDFQSSLNRPELELSTHSPRKSSSFSEEKGESDDEKPRKGERRSSRVRQAKSKLPEYSQTAEEEEDQETPSRNLRVRADRNLKIEEEEEEEEEEEDDDDEEEEEVDEAQKSREAEAPTLKQFEDEEGEERTRAKPEKVVDEKPLNIRSQEKGELEKGGRVTRSQEEARRSHLARQQQEKETQIVSLPQEENEVKSSQSLEEKSQSPSPPPLPEDLEKAPVVLQPEQIVSEEETPPPLLTKEASSPPTHIQLQEEMEPVEGPAPPVLIQLSPPNTDAGAREPLASPHPAQLLRSLSPLSGTTDTKAESPAGRVSDESVLPLAQKSSLPECSTQKGVESEREKSAPLPLTVEEFAPAKGITEEPMKKQSLEQKEGRRASHALFPEHSGKQSADSSSSRSSSPSSSSSPSRSPSPDSVASRPQSSPGSKQRDGAQARVHANPHERPKMGSRSTSESRSRSRSRSRSASSSSRKSLSPGVSRDSNTSYTETKDPSCGQEAAAPSGPQLQVLEPKEKAPTFSASVRGRHLSHPEPEQQHVIQRLQPEQGSPKKCEAEEAEPPAATQPQTSETQISHLLESERTHHTVEEKEEVTMDTSENRPENEVPEPPLPVADQVSNDERPEGGAEEEEKKESSMPKSFKRKISVVSATKGVQAGNSDTEGGQPGRKRRWGASTAATQKKPSISITTESLKSLIPDIKPLAGQEAVVDLHADDSRISEDETERNGDDGTHDKGLKICRTVTQVVPAEGQENGQREEEEEKEPEAELPAPPQVSVEVALPPPVEHEVKKVTLGDTLTRRSISQQKSGVSITIDDPVRTAQVPSPPRGKISNIVHISNLVRPFTLGQLKELLGRTGTLVEEAFWIDKIKSHCFVTYSTVEEAVATRTALHGVKWPQSNPKFLCADYAEQDELDYHRGLLVDRPSETKAEEQGAPRPLHPPPPPPVQPPPHPRAEQREQERAVREQWAEREREMERRERTRSEREWDRDKVREGPRSRSRSRDRRRKERAKSKEKKSEKKEKAQEEPPAKLLDDLFRKTKAAPCIYWLPLTESQIVQKEAEQAERAKEREKRRKEREEEEQKEREKEAERERNRQLEREKRREHSRERERDRERERDRGDRERERERDRDRGRERDRRDTKRHSRSRSRSTPVRDRGGRR
Regarding B2, the binding result in assay [2] was “binds”.

B3: DDX46 (protein, UniProt Q569Z5 1-1032)
chain: MGRESRHYRKRSASRGRSGSRSRSRSPSDKRSKRGDDRRSRSRDRDRRRERSRSRDKRRSRSRDRKRLRRSRSRERDRSRERRRSRSRDRRRSRSRSRGRRSRSSSPGSKTKKTENRSRSKEKAEGGDSSKEKKKDKDDKEDEKEKDAGNFDQNKLEEEMRKRKERVEKWREEQRKKAMENIGELKKEIEEMKQGKKWSLEDDDDDEDDPAEAEKEGTEMEDEELDPLDAYMEEVKEEVKKFNMRSVKGGAGNEKKSGPTVTKVVTVVTTKKAVVDADKKKGELMENDQDAMEYSSEEEEVDLQTALTGYQTKQRKLLEPVDHGKIEYEPFRKNFYVEVPELAKMSQEEVNVFRLEMEGITVKGKGCPKPIKSWVQCGISMKILNSLKKHGYEKPTPIQTQAIPAIMSGRDLIGIAKTGSGKTIAFLLPMFRHIMDQRSLEEGEGPIAVIMTPTRELALQITKECKKFSKTLGLRVVCVYGGTGISEQIAELKRGAEIIVCTPGRMIDMLAANSGRVTNLRRVTYVVLDEADRMFDMGFEPQVMRIVDNVRPDRQTVMFSATFPRAMEALARRILSKPIEVQVGGRSVVCSDVEQQVIVIEEEKKFLKLLELLGHYQESGSVIIFVDKQEHADGLLKDLMRASYPCMSLHGGIDQYDRDSIINDFKNGTCKLLVATSVAARGLDVKHLILVVNYSCPNHYEDYVHRAGRTGRAGNKGYAYTFITEDQARYAGDIIKALELSGTAVPPDLEKLWSDFKDQQKAEGKIIKKSSGFSGKGFKFDETEQALANERKKLQKAALGLQDSDDEDAAVDIDEQIESMFNSKKRVKDMAAPGTSSVPAPTAGNAEKLEIAKRLALRINAQKNLGIESQVDVMQQATNAILRGGTILAPTVSAKTIAEQLAEKINAKLNYVPLEKQEEERQEGGQSESFKRYEEELEINDFPQTARWKVTSKEALQRISEYSEAAITIRGTYFPPGKEPKEGERKIYLAIESANELAVQKAKAEITRLIKEELIRLQNSYQPTNKGRYKVL
On to B3, for which the binding entry in assay [2] is given as “binds”.

B4: SF3B1 (protein, UniProt Q99NB9 1-1304)
chain: MAKIAKTHEDIEAQIREIQGKKAALDEAQGVGLDSTGYYDQEIYGGSDSRFAGYVTSIAATELEDDDDDYSSSTSLLGQKKPGYHAPVALLNDIPQSTEQYDPFAEHRPPKIADREDEYKKHRRTMIISPERLDPFADGGKTPDPKMNARTYMDVMREQHLTKEEREIRQQLAEKAKAGELKVVNGAAASQPPSKRKRRWDQTADQTPGATPKKLSSWDQAETPGHTPSLRWDETPGRAKGSETPGATPGSKIWDPTPSHTPAGAATPGRGDTPGHATPGHGGATSSARKNRWDETPKTERDTPGHGSGWAETPRTDRGGDSIGETPTPGASKRKSRWDETPASQMGGSTPVLTPGKTPIGTPAMNMATPTPGHIMSMTPEQLQAWRWEREIDERNRPLSDEELDAMFPEGYKVLPPPAGYVPIRTPARKLTATPTPLGGMTGFHMQTEDRTMKSVNDQPSGNLPFLKPDDIQYFDKLLVDVDESTLSPEEQKERKIMKLLLKIKNGTPPMRKAALRQITDKAREFGAGPLFNQILPLLMSPTLEDQERHLLVKVIDRILYKLDDLVRPYVHKILVVIEPLLIDEDYYARVEGREIISNLAKAAGLATMISTMRPDIDNMDEYVRNTTARAFAVVASALGIPSLLPFLKAVCKSKKSWQARHTGIKIVQQIAILMGCAILPHLRSLVEIIEHGLVDEQQKVRTISALAIAALAEAATPYGIESFDSVLKPLWKGIRQHRGKGLAAFLKAIGYLIPLMDAEYANYYTREVMLILIREFQSPDEEMKKIVLKVVKQCCGTDGVEANYIKTEILPPFFKHFWQHRMALDRRNYRQLVDTTVELANKVGAAEIISRIVDDLKDEAEQYRKMVMETIEKIMGNLGAADIDHKLEEQLIDGILYAFQEQTTEDSVMLNGFGTVVNALGKRVKPYLPQICGTVLWRLNNKSAKVRQQAADLISRTAVVMKTCQEEKLMGHLGVVLYEYLGEEYPEVLGSILGALKAIVNVIGMHKMTPPIKDLLPRLTPILKNRHEKVQENCIDLVGRIADRGAEYVSAREWMRICFELLELLKAHKKAIRRATVNTFGYIAKAIGPHDVLATLLNNLKVQERQNRVCTTVAIAIVAETCSPFTVLPALMNEYRVPELNVQNGVLKSLSFLFEYIGEMGKDYIYAVTPLLEDALMDRDLVHRQTASAVVQHMSLGVYGFGCEDSLNHLLNYVWPNVFETSPHVIQAVMGALEGLRVAIGPCRMLQYCLQGLFHPARKVRDVYWKIYNSIYIGSQDALIAHYPRIYNDDKNTYIRYDLDYIL
B4: in assay [2], the binding result was “binds”.

B5: SF3A1 (protein, UniProt Q8K4Z5 1-791)
chain: MQAGPVQAVPPPPPVATESKQPIEEEASSKEDPTPSKPVVGIIYPPPEVRNIVDKTASFVARNGPEFEARIRQNEINNPKFNFLNPNDPYHAYYRHKVSEFKEGKAQEPSAAIPKVMQQQQQATQQQLPQKVQAQVIQETIVPKEPPPEFEFIADPPSISAFDLDVVKLTAQFVARNGRQFLTQLMQKEQRNYQFDFLRPQHSLFNYFTKLVEQYTKILIPPKGLFSKLKKEAENPREVLDQVCYRVEWAKFQERERKKEEEEKEKERVAYAQIDWHDFVVVETVDFQPNEQGNFPPPTTPEELGARILIQERYEKFGESEEVEMEVESDEEDQEKAEETPSQLDQDTQVQDMDEGSDDEEEGQKVPPPPETPMPPPLPPTPDQVIVRKDYDPKASKPLPPAPAPDEYLVSPITGEKIPASKMQEHMRIGLLDPRWLEQRDRSIREKQSDDEVYAPGLDIESSLKQLAERRTDIFGVEETAIGKKIGEEEIQKPEEKVTWDGHSGSMARTQQAAQANITLQEQIEAIHKAKGLVPEDDTKEKIGPSKPNEIPQQPPPPSSATNIPSSAPPITSVPRPPAMPPPVRTTVVSAVPVMPRPPMASVVRLPPGSVIAPMPPIIHAPRINVVPMPPAAPPIMAPRPPPMIVPTAFVPAPPVAPVPAPAPMPPVHPPPPMEDEPPSKKLKTEDSLMPEEEFLRRNKGPVSIKVQVPNMQDKTEWKLNGQGLVFTLPLTDQVSVIKVKIHEATGMPAGKQKLQYEGIFIKDSNSLAYYNMASGAVIHLALKERGGRKK
Regarding B5, the binding entry in assay [2] was “binds”.

The record behind these values is publication PMC8396604.
